Experimental data from publication PMC8131924.
These are yes or no findings as the source states them, for the method shown. For part of these data: In cells and extracts the contact can be indirect. Some results given as binding are weak or reduced against the parent protein; the word gives no strength. Sequences can lack the tags named with a protein.

T1: HA-TBC1D4 construct C1 (Met1-Leu478) (mouse) (UniProt Q8BYJ6)
T1 sequence: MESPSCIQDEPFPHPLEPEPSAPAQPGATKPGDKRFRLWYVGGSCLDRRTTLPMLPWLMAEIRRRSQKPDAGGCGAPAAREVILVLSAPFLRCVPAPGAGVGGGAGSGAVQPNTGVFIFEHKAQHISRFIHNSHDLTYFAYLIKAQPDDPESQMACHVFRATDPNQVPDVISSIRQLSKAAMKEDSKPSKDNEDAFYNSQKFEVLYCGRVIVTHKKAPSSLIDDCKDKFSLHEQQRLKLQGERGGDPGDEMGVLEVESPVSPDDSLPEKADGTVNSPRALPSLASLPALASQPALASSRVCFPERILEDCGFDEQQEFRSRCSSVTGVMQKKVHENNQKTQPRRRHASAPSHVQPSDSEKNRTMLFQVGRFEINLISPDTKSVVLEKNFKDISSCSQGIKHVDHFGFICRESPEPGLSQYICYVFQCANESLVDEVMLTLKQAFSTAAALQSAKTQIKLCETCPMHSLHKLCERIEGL

B1: recombinant full-length His6-TBC1D4 (nonphosphorylated) (protein, UniProt Q8BYJ6 1-1307)
chain: MESPSCIQDEPFPHPLEPEPSAPAQPGATKPGDKRFRLWYVGGSCLDRRTTLPMLPWLMAEIRRRSQKPDAGGCGAPAAREVILVLSAPFLRCVPAPGAGVGGGAGSGAVQPNTGVFIFEHKAQHISRFIHNSHDLTYFAYLIKAQPDDPESQMACHVFRATDPNQVPDVISSIRQLSKAAMKEDSKPSKDNEDAFYNSQKFEVLYCGRVIVTHKKAPSSLIDDCKDKFSLHEQQRLKLQGERGGDPGDEMGVLEVESPVSPDDSLPEKADGTVNSPRALPSLASLPALASQPALASSRVCFPERILEDCGFDEQQEFRSRCSSVTGVMQKKVHENNQKTQPRRRHASAPSHVQPSDSEKNRTMLFQVGRFEINLISPDTKSVVLEKNFKDISSCSQGIKHVDHFGFICRESPEPGLSQYICYVFQCANESLVDEVMLTLKQAFSTAAALQSAKTQIKLCETCPMHSLHKLCERIEGLYPPRAKLVIQRHLSSLTDNEQADIFERVQKMKPISDQEENELVILHLRQLCEAKQRTHVHIGEGPAIISNSTIPENVTSGGRFKLDVLKNKAKRSLTSSLENIFSRGANRMRGRLGSMDSFERANSLASEKDFSPGDSPPGTPPASPLSSAWHAFPEEDSDSPQFRRRAHTFSHPPSSSRRKLNLQDGKAHGLRSPLLRQSSSEQCSIVPSARRMYKESNSSCSLPSLHTSFSAPSFTAPSFLKSFYQNSGRLSPQYENEIRQDTASESSDGEGRKRTSSTCSNESLNAGGTPVTPRRVSWRQRIFLRVASPVNKSPSAMQQQKDGLDRTELLPLSPLSPTMEEEPLIIFLSGDEDTEKVEEKKKSKELKSLWKKAIHQQILLLRMEKENQKLEEARRDELQSRKVKLDYEEVGTCQKEILIAWDKKLLNCRTKIRCDMEDIHTSLKEGVPKSRRGEIWQFLALQYRLRHRLPNKHQPPDTSYKELLKQLTAQQHAILVDLGRTFPTHPYFSVQLGAGQLSLFNLLKAYSLLDKEVGYCQGISFVAGVLLLHMSEEQAFEMLKFLMYDLGFRKQYRPDMMSLQIQMYQLSRLLHDYHRELYNHLEENEISPSLYAAPWFLTLFASQFPLGFVARVFDIIFLQGTEVIFKVALSLLSSQEALIMECENFENIVEFLKSTLPDMNTTEMEKIITQVFEMDISKQLHAYEVEYHVLQDELLESSYACEDNESLEKLERANNQLKRQNMDLLEKLQVAHAKIQALESNLETLLTRETKMKALIRTLEQDKMAYQKTVEQIRKLLPADALANCELLLKDLTHPTNDKAKAGNKP
B2: full-length TBC1D4 expressed in HEK293 cells (3xFLAG-tagged copy and HA-tagged copy) (protein, UniProt Q8BYJ6 1-1307)
chain: B1 chain

Columns and labels:
[1] = target: recombinant full-length His6-TBC1D4 (nonphosphorylated) (mouse) (UniProt Q8BYJ6); test: SEC; purified TBC1D4 on an ENrich SEC650 column, 50 mM Tris-HCl pH 7.5, 1 ml/min; apparent Mr from standards; both purified
[2] = target: full-length TBC1D4 expressed in HEK293 cells (3xFLAG-tagged copy and HA-tagged copy) (mouse) (UniProt Q8BYJ6); test: co-IP; HEK293 cells coexpressing HA-TBC1D4 constructs and 3xFLAG-TBC1D4; lysis in 150 mM NaCl, 1% Triton X-100, 50 mM Tris-HCl pH 8; anti-HA magnetic beads, 30 min at 4 °C; western blot
[3] = target: T1, HA-TBC1D4 construct C1 (Met1-Leu478) (mouse); test: as above

| binding [1] | binding [2] | binding [3] | Binder |
| --- | --- | --- | --- |
| binds |  |  | B1 |
|  | binds | binds | B2 |
